Results are given in words; binding and its absence hold for the method and conditions named. Binding seen in cells or lysates may run through a third protein.
Molecular target: Olfactomedin 4 (OLFM4), full-length (UniProt Q6UX06)
Assay: co-IP; U266 cells transfected with HA- or Flag-tagged expression plasmids for 48 h; lysate (1 mg) with anti-HA or anti-Flag antibody (10 μg) and protein A/G magnetic beads overnight at 4 °C, four washes with lysis buffer, Western blot; for LRG1 and OLFM4 also with cells treated with TGF-β

Chains of the proteins cited; added tags and fusions are not shown. Lines headed by an entry give the natural chain unless they say otherwise; changes in a name come on top. Residues count along the entry.
UniProt Q6UX06, residues 21-510: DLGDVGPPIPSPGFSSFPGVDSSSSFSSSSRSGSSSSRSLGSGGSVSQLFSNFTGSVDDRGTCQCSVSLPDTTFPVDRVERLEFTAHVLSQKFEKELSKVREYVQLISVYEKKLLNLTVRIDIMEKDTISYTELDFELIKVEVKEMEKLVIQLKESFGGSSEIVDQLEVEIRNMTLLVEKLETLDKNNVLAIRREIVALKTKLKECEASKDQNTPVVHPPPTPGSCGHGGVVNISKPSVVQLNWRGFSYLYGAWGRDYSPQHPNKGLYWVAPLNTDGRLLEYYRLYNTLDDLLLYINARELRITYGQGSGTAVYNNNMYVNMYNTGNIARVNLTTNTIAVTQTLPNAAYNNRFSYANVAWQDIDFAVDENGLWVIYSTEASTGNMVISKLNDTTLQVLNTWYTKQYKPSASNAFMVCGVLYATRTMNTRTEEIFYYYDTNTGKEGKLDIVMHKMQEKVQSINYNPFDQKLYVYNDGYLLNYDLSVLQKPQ
UniProt P02750: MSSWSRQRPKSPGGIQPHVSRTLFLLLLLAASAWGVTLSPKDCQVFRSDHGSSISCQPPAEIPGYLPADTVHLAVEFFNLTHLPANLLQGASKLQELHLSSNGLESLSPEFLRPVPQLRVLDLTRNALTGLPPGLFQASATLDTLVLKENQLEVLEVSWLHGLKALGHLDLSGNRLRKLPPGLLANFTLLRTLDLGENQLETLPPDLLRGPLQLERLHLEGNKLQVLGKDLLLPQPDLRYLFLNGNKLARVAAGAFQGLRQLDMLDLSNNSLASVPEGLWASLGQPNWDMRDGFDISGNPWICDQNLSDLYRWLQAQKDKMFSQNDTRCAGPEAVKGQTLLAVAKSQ

LRG1Δ2 (1–12, 264–310 aa) (from UniProt P02750) (domain or fragment)
binding: no binding

Reference: publication PMC11176168
